Reference: doi:10.1101/2025.02.22.639629 (bioRxiv, 2025)
No constants are given. Whether binding was seen depends on the method and setting. Some results given as binding are weak or reduced against the parent protein; the word gives no strength.

Chains of the proteins cited; added tags and fusions are not shown. Residues count along the entry.
UniProt Q9NPH3, residues 21-367: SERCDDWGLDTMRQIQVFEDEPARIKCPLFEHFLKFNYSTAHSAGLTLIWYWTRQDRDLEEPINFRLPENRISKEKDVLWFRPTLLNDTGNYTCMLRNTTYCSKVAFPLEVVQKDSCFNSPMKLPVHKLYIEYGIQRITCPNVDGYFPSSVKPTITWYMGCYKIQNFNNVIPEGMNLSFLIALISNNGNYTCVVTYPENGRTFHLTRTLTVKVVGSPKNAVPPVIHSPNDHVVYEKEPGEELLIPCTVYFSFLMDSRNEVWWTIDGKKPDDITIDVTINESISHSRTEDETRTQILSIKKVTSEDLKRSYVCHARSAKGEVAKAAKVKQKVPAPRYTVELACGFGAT

T1: IL-37:IL-36R binary complex (human) (UniProt Q9NZH6+Q9HB29)
T1 sequence (chain, N-glycosylated) 1: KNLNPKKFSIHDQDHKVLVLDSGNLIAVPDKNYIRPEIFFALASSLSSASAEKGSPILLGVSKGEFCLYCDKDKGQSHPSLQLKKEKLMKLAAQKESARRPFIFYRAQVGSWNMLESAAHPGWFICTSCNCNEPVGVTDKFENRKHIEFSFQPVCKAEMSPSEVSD
T1 sequence (chain, N-glycosylated) 2: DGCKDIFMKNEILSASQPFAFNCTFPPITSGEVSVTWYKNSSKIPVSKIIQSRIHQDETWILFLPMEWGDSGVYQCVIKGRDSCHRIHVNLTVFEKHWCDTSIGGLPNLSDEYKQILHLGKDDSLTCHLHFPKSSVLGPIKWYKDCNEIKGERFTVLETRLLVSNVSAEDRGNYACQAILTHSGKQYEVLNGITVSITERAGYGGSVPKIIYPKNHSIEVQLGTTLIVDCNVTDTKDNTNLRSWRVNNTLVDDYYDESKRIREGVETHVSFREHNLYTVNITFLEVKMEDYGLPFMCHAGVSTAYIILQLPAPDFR

B1: IL-36γ R121A (ligand, UniProt Q9NZH8 18-169)
chain: SMCKPITGTINDLNQQVWTLQGQNLVAVPRSDSVTPVTVAVITCKYPEALEQGRGDPIYLGIQNPEMCLYCEKVGEQPTLQLKEQKIMDLYGQPEPVKPFLFYAAKTGRTSTLESVAFPDWFIASSKRDQPIILTSELGKSYNTAFELNIND

Columns and labels:
[1] = biological target: T1, IL-37:IL-36R binary complex (human); test: ITC
IL-36γ R121A (human) = IL-36γ R121A (human) (UniProt Q9NZH8); test: SEC-MALS

binding [1]	binding (IL-36γ R121A (human))	Molecule
no binding (tested: 427 µM)	–	IL-1RAcP extracellular domain (residues 1-367) (from UniProt Q9NPH3 21-367) (receptor)
–	binds weakly	B1
